# According to PubChem BioAssay AID540256 (National Center for Advancing Translational Sciences (NCATS), 2011):
# About 3,700 (1.2%) of roughly 300,000 compounds were called active. Inconclusive means that the source gave no clear call. Such entries were picked first, then a sample of the others. The call rests on the fitted dose curve; tested in HEK293 cells. Potencies beside an inconclusive call are fits to weak or partial responses and may not hold up.
# Test: qHTS for Inhibitors of binding or entry into cells for Lassa Virus; further: nearly all actives have a fitted effect of over 50% in size
# Settings: Lassa virus pseudotype entry inhibition, cell reporter; series mostly up to 37.9 µM
# Potency means the concentration at half of the fitted maximal effect.
row,Structure (SMILES),Potency
1,CCn1cc(C(=O)NCCc2ccccc2)c(=O)c2cc(S(=O)(=O)N3CCc4ccccc4C3)ccc21,"inconclusive: 15.8 µM [activator, single point]"
2,Cc1ccc(S(=O)(=O)N/N=C\c2cc3c(cc2Br)OCO3)cc1,"inconclusive: 22.4 µM [inhibitor, single point]"
3,COc1cc(/C=C/C(=O)OCC(=O)N2CCC(Cc3ccccc3)CC2)ccc1O,"inconclusive: 10 µM [inhibitor, partial curve]"
4,CCCCS(=O)(=O)N1CCC(C(=O)NCC2CCCO2)CC1 (centres undefined),"inconclusive: 35.5 µM [activator, single point]"
5,O=C(CN1N=C(c2ccccc2)CCC1=O)NCc1ccc(F)cc1Cl,"inconclusive: 35.5 µM [activator, single point]"
6,CCCCn1c(N)c(N(CCC(C)C)C(=O)C2=COCCO2)c(=O)[nH]c1=O,inactive
7,O=C1C=CC(=O)N1c1cccc(-c2ccccc2)c1,"inconclusive: 20 µM [inhibitor, partial curve, poor fit]"
8,CCCc1nc2ccccc2c(C(=O)OCC(=O)Nc2cccc(S(=O)(=O)N3CCOCC3)c2)c1CC,active: 18.3 µM
9,Cc1ccc(C(=O)N2CCN3C(=O)c4ccccc4C23c2ccc(Cl)cc2)cc1 (centres undefined),"inconclusive: 22.4 µM [inhibitor, single point]"
10,Nc1cccc(N=[N+]([O-])c2cccc(N)c2)c1,"inconclusive: 35.5 µM [activator, single point]"
11,CC(C)(C)c1ccc(NC(=O)c2ccsc2)cc1,"inconclusive: 11.2 µM [inhibitor, partial curve, poor fit]"
12,Cc1cc2nc(-c3ccc(SCC(=O)Nc4ccc(S(=O)(=O)NC5CC5)cc4)nc3)[nH]c2cc1C,"inconclusive: 25.1 µM [inhibitor, single point]"
13,CCC(Sc1nc2ncccc2o1)C(=O)Nc1cccc(C)c1 (centres undefined),"inconclusive: 20 µM [activator, single point]"
14,O=C(Nc1ccc(Cl)c(C(F)(F)F)c1)C(Cc1ccccc1)NS(=O)(=O)c1cccc2nsnc12 (centres undefined),inactive
15,Cc1ccc2[nH]c(=O)c(CN(C(=O)c3cccc([N+](=O)[O-])c3)C(C)(C)C)cc2c1,"inconclusive: 35.5 µM [inhibitor, partial curve, poor fit]"
16,O=C(COc1ccc(Cl)cc1)NCc1ccc(F)cc1,"inconclusive: 15.8 µM [inhibitor, single point]"
17,COc1ccc(NC(=O)C2CCCN(S(=O)(=O)c3c(C)[nH]c(=O)[nH]c3=O)C2)cc1Cl (centres undefined),inactive
18,O=C(Nc1ccc(NC(=O)c2ccccc2F)cn1)c1ccco1,"inconclusive: 12.6 µM [inhibitor, single point]"
19,CCOc1ccc(C(=O)NC(=S)Nc2cccc(S(=O)(=O)NC3=NCCC3)c2)cc1,"inconclusive: 1 µM [inhibitor, full curve, poor fit]"
20,CCOc1ccc(S(=O)(=O)N/N=C(\C)c2ccc(OC)cc2OC)cc1,"inconclusive: 5.01 µM [inhibitor, partial curve, poor fit]"
21,COC(=O)c1c(NC(=O)C2(C)Cc3ccccc3C(=O)O2)sc2c1CCCC2 (centres undefined),"inconclusive: 1.16 µM [inhibitor, full curve, poor fit]"
22,O=C(Nc1cccc(S(=O)(=O)N2CCCC2)c1)c1ccc(Cl)nc1,"inconclusive: 20 µM [inhibitor, single point]"

row,Structure (SMILES),Potency
1,O=C(Cc1ccc2c(c1)CCCC2)Nc1ccc2ccccc2c1,"inconclusive: 1.41 µM [inhibitor, full curve]"
2,OC(CNc1nc2ccccc2s1)c1ccccc1 (centres undefined),"inconclusive: 25.1 µM [activator, single point]"
3,CCOC(=O)c1cnc(-n2nc(C)cc2C)nc1Nc1ccc(N(C)C)cc1,active: 7.3 µM
4,Cc1cc(=O)n2[nH]c(-c3ccc(C(C)(C)C)cc3)cc2n1,"inconclusive: 23.1 µM [inhibitor, single point]"
5,CCOc1ccc(-n2cc(-c3ccc(OC)c(OC)c3)[nH]c2=S)cc1,inactive
6,CN(Cc1cccc(Cl)c1Cl)C(=O)c1cc(S(=O)(=O)N2CCOCC2)ccc1F,"inconclusive: 14.1 µM [inhibitor, partial curve, poor fit]"
7,COc1ccc(NC(=O)O/N=C/c2ccncc2)cc1,inactive
8,CC(NC(=O)/C(C#N)=C/c1ccc([N+](=O)[O-])o1)c1ccccc1 (centres undefined),"inconclusive: 35.5 µM [inhibitor, single point]"
9,O=C(CCCn1c(=O)[nH]c2ccccc2c1=O)N1CCN(c2ccccc2)CC1,"inconclusive: 4.47 µM [inhibitor, single point]"
10,O=C1CCCc2[nH]c(=O)c(-c3nc(-c4cccc([N+](=O)[O-])c4)cs3)cc21,inactive
11,CCOc1ccc(C(C(=O)NCC2CCCO2)N(C(=O)c2snc(C(N)=O)c2N)c2cccc(F)c2)cc1 (centres undefined),"inconclusive: 11.2 µM [inhibitor, partial curve, poor fit]"
12,COc1ccc(-c2nc(CNC(=O)NC3CCCCC3)c(C)o2)c(OC)c1,inactive
13,Cc1ccc2c(c1)C(C)(c1ccccc1)CC(C)(C)N2C(=O)c1ccc(F)cc1 (centres undefined),inactive
14,CCN(Cc1ccccc1)S(=O)(=O)c1cc(C(=O)NCC2CCCCC2)ccc1OC,"inconclusive: 2.24 µM [inhibitor, partial curve, poor fit]"
15,O=C(NCc1ccco1)c1cccc(NC(=O)c2ccco2)c1,"inconclusive: 6.51 µM [inhibitor, single point]"
16,Cc1ccc(C(=O)c2sc(Nc3ccc(F)cc3)nc2N)c(C)c1,inactive
17,COc1ccc(/C=C2\C(=N)N3N=C(CC(=O)N4CCCCC4)SC3=NC2=O)cc1,inactive
18,CCOC(=O)c1c(NC(=O)c2ccccc2N(C)S(=O)(=O)c2ccccc2)sc2c1CCCC2,"inconclusive: 3.55 µM [inhibitor, single point]"
19,C=CCN(C(=O)CCC(=O)Nc1cc(C)on1)C(C(=O)NC1CCCC1)c1ccc(OC)cc1OC (centres undefined),inactive
20,Cc1ccc(-c2csc(NC(=O)c3ccc4c(=O)n5c(nc4c3)CCCCC5)n2)cc1,"inconclusive: 8.91 µM [inhibitor, partial curve, poor fit]"
21,CCOC(=O)C1=C(C)Nc2sc(C(=O)c3ccc(C)cc3)c(N)c2C1c1ccc(C(=O)OC)cc1 (centres undefined),"inconclusive: 29.1 µM [inhibitor, single point]"
22,O=C(CN(C1CCCCC1)S(=O)(=O)c1ccc(Cl)cc1)NCCCO,"inconclusive: 0.184 µM [activator, full curve, poor fit]"

# An excerpt taken from the entries so far:
row,Structure (SMILES),Potency
4,Cc1cc(=O)n2[nH]c(-c3ccc(C(C)(C)C)cc3)cc2n1,"inconclusive: 23.1 µM [inhibitor, single point]"
5,CCOc1ccc(-n2cc(-c3ccc(OC)c(OC)c3)[nH]c2=S)cc1,inactive

# Further compounds

row,Structure (SMILES),Potency
1,Cc1ccc(NC(=O)C(c2ccccc2)N(C)C)cc1Cl (centres undefined),"inconclusive: 35.5 µM [inhibitor, single point]"
2,CN(C)C(CNC(=O)C1CCN(C(=O)/C=C/c2ccccc2)CC1)c1ccccc1 (centres undefined),inactive
3,CC(=O)c1ccc(NC(=S)N2CCN(c3ccccn3)CC2)cc1,"inconclusive: 0.316 µM [inhibitor, full curve, poor fit]"
4,COc1ccc(C(=O)NC(C)c2ccccc2)cc1Br (centres undefined),"inconclusive: 7.3 µM [inhibitor, partial curve]"
5,O=C1C=C(NCCc2cc(Br)c(O)c(Br)c2)C(=O)c2ncccc21,active: 2.82 µM
6,Cc1c(OCc2ccccc2)c(=O)ccn1Cc1ccccc1,"inconclusive: 8.91 µM [activator, partial curve]"
7,O=C(COc1ccc2ccccc2c1Br)N1CCN(c2ccccn2)CC1,"inconclusive: 20.6 µM [inhibitor, single point]"
8,O=C(O)CC(CC(=O)Nc1ccc(Oc2ccccc2)cc1)c1ccccc1 (centres undefined),"inconclusive: 4.47 µM [inhibitor, partial curve]"
9,Cc1ccc(-n2ncc3c(N4CCCCC4)ncnc32)cc1,"inconclusive: 2.24 µM [inhibitor, partial curve, poor fit]"
10,O=C(CC12CC3CC(C1)CC(CC(=O)NC1=NCCS1)(C3)C2)NC1=NCCS1,"inconclusive: 35.5 µM [activator, single point]"
11,CC1CCCC(NC(=O)COC(=O)CSc2ccc3ccccc3c2)C1C (centres undefined),inactive
12,COc1ccc(Cl)cc1NC(=O)c1sc2nc3c(cc2c1N)CN(C)CC3,"inconclusive: 1 µM [activator, full curve, poor fit]"
13,CCc1nnc(N/N=C/c2cc(C)c(C)cc2C)n1N,"inconclusive: 35.5 µM [inhibitor, single point]"
14,c1ccc(N2CCCCC2)c(Nc2nc3ccccc3n3cnnc23)c1,"inconclusive: 13 µM [inhibitor, partial curve]"
15,O=C(CCC1N=C2c3ccccc3N=C(SCc3ccc(Cl)cc3)N2C1=O)NC1CCCCC1 (centres undefined),inactive
16,CCn1cc(C(=O)O)c(=O)c2cc(F)c(N3CCN(C(=S)NC(=O)c4cccc(C)c4)CC3)cc21,inactive
17,COc1ccc2cnn(CCOc3ccccc3)c(=O)c2c1OC,"inconclusive: 7.94 µM [inhibitor, partial curve, poor fit]"
18,CC(C)(C)C(=O)N1N=C(c2ccc(NS(C)(=O)=O)cc2)CC1c1cccs1 (centres undefined),"inconclusive: 11.2 µM [inhibitor, partial curve]"
19,COc1ccccc1NS(=O)(=O)c1ccc(Cl)c(NC(=O)c2sc3cc(Cl)ccc3c2Cl)c1,"inconclusive: 0.178 µM [inhibitor, full curve, poor fit]"
20,O=C(c1nn(Cc2ccccc2)c(=O)c2ccccc12)N1CCN(C/C=C/c2ccccc2)CC1,"inconclusive: 14.1 µM [inhibitor, partial curve, poor fit]"
